# Test results: the supplement of paper PMC12067093, “Discovery and optimisation of a covalent ligand for TRIM25 and its application to targeted protein ubiquitination” (Chemical Science, 2025)
# Chains of the proteins cited; added tags and fusions are not shown. Lines headed by an entry give the natural chain unless they say otherwise; changes in a name come on top.
# UniProt Q16822, whole entry, looked up: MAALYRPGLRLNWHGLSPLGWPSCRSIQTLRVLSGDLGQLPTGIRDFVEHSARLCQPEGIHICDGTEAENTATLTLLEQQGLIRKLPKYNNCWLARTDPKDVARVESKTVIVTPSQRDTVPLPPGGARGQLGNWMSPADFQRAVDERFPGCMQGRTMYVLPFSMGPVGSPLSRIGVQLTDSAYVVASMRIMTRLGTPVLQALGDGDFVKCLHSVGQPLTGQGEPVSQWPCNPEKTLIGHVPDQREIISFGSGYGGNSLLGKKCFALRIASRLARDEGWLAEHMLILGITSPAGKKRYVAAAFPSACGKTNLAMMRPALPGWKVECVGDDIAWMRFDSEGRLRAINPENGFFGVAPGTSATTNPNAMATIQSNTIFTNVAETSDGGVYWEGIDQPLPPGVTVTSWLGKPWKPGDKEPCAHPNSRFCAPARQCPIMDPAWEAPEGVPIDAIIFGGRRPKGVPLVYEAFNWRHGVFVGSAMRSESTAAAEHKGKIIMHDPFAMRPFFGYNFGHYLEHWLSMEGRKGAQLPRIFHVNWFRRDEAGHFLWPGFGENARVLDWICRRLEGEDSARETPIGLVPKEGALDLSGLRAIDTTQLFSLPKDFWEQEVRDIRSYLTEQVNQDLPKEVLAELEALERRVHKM
# UniProt Q9P0J1: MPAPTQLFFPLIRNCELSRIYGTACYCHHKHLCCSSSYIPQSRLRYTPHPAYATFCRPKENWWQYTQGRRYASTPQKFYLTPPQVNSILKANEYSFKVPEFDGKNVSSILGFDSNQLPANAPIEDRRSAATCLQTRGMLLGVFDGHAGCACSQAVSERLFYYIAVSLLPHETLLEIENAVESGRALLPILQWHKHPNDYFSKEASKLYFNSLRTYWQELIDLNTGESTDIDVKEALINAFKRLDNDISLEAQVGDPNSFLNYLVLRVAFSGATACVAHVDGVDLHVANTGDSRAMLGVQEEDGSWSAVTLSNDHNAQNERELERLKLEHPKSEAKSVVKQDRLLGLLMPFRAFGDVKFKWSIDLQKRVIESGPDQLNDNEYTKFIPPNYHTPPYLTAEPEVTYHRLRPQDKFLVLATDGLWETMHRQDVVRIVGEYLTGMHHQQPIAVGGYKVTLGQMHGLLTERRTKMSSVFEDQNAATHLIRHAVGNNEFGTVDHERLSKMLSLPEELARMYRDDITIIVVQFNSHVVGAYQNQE
# UniProt P08559, whole entry, looked up: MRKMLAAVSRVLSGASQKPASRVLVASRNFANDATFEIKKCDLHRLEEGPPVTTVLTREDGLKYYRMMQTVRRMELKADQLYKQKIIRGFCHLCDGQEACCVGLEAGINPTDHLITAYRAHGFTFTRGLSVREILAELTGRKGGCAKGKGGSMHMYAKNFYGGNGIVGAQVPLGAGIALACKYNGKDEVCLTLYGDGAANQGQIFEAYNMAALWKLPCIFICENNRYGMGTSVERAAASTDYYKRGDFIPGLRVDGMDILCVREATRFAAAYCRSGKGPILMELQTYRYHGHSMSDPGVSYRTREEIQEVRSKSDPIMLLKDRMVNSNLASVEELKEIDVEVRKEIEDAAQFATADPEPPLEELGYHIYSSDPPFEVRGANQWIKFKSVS
# UniProt P49585: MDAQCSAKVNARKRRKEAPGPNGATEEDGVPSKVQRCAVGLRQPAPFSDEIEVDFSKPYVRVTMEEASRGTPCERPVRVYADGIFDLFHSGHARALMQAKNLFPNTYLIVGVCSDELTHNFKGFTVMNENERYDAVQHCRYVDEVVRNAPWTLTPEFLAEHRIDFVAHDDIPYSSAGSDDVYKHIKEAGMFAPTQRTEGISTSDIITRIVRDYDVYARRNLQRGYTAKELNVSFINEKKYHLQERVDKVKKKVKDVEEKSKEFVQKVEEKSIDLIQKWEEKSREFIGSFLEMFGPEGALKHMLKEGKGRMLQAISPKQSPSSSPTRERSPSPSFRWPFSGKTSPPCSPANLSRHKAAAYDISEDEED
# UniProt Q9NR12, whole entry, looked up: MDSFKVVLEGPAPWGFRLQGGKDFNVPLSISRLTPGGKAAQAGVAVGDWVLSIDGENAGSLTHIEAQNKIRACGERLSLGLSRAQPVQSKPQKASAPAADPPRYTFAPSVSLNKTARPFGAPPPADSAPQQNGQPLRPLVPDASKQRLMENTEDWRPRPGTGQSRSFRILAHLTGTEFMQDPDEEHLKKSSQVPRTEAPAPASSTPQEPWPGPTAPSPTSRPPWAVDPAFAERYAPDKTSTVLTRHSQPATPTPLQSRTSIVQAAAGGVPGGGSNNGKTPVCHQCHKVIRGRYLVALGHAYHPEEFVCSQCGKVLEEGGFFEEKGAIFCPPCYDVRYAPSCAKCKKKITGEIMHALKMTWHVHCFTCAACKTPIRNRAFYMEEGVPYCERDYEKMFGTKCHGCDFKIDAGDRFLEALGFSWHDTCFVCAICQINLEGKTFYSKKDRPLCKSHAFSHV
# UniProt Q5JVF3: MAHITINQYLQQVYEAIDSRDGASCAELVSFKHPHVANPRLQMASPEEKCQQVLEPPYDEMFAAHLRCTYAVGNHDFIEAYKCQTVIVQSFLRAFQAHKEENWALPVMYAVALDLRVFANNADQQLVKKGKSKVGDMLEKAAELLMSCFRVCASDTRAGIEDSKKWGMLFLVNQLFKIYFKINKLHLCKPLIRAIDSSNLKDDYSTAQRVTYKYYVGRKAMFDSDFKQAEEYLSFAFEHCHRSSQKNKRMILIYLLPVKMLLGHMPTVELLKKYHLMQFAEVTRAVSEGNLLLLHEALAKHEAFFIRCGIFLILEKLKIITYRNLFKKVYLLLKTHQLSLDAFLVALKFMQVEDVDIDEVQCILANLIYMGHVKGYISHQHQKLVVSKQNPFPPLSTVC
# UniProt Q29RF7: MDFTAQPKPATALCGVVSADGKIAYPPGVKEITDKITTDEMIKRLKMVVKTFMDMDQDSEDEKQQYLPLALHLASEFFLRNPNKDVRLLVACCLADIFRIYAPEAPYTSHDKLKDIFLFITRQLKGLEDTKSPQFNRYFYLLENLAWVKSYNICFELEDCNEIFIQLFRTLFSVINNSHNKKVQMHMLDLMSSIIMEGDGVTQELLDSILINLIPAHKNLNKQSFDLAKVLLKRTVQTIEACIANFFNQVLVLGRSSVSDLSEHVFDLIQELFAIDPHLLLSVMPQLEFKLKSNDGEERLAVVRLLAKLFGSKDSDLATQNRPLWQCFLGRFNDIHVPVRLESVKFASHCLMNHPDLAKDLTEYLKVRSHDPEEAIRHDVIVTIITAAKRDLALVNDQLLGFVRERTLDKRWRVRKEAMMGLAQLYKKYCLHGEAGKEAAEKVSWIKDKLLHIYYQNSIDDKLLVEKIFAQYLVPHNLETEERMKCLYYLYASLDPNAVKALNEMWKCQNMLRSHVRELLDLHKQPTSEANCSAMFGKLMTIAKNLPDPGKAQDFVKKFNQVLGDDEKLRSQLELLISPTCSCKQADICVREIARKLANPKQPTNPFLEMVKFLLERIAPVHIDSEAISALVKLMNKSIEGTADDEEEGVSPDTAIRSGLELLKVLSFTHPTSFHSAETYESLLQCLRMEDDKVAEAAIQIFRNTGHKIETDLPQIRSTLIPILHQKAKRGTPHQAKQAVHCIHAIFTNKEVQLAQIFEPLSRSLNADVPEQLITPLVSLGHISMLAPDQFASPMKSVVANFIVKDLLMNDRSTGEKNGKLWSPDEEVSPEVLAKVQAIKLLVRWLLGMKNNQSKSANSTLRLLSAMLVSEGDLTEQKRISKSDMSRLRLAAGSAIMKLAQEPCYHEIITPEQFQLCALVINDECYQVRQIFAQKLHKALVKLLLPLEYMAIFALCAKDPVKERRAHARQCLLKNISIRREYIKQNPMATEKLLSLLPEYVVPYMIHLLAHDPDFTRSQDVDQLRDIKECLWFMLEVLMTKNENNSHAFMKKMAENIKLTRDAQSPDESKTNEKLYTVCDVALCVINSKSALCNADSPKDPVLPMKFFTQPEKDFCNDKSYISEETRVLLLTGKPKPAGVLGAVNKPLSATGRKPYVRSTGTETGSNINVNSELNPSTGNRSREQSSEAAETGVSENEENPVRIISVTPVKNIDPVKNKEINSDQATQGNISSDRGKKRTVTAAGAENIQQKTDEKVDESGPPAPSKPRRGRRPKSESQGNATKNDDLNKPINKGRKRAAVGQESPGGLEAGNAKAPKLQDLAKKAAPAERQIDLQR
# UniProt Q6P996: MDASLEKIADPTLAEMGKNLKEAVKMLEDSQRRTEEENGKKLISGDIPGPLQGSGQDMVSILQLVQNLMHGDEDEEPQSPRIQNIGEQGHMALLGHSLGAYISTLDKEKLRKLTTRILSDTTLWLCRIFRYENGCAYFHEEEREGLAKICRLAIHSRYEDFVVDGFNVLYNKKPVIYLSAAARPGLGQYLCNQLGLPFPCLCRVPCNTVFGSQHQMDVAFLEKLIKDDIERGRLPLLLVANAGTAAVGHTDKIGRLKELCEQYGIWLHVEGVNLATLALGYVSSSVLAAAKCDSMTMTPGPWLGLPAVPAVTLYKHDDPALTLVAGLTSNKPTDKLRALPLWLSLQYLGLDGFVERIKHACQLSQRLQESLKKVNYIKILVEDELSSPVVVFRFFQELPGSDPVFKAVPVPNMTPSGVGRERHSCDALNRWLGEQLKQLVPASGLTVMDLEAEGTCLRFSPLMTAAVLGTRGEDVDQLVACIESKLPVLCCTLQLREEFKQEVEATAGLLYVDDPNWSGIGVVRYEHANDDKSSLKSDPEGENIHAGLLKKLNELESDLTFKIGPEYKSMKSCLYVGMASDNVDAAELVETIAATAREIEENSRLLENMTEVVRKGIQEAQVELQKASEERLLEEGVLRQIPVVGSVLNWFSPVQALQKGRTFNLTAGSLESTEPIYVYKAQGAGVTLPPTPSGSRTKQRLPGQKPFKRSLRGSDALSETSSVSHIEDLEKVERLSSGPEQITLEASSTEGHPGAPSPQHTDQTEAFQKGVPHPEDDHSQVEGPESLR
# UniProt P13667: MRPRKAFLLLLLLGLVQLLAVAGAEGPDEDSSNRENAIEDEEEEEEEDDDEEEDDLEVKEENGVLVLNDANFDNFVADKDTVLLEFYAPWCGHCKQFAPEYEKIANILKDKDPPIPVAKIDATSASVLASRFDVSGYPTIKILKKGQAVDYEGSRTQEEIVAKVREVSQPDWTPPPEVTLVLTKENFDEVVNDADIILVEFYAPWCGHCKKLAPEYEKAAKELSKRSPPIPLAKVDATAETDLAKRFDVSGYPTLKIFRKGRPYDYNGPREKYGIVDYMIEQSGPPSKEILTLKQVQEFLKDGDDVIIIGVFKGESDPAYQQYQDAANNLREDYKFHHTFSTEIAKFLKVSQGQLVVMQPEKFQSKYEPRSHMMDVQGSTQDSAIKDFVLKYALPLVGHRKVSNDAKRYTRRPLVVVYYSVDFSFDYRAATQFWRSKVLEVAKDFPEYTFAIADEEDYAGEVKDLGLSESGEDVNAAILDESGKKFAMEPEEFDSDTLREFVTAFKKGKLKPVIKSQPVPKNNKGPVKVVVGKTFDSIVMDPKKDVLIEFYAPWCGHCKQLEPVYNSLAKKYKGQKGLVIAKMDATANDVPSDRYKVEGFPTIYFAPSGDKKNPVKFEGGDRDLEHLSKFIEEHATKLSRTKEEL
# UniProt Q7L3T8: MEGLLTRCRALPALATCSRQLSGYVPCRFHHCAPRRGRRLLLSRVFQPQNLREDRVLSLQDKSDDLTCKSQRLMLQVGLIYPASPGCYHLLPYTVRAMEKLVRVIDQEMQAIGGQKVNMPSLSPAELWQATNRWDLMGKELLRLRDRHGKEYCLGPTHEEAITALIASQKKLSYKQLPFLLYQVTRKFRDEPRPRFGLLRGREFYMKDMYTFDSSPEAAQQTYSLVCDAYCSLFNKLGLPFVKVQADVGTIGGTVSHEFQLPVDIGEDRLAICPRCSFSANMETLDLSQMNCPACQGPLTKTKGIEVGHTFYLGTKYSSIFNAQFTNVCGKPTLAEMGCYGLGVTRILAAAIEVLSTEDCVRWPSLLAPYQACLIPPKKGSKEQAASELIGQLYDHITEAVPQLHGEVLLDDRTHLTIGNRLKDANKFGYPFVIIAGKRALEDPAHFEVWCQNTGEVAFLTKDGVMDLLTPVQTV
# UniProt P05166: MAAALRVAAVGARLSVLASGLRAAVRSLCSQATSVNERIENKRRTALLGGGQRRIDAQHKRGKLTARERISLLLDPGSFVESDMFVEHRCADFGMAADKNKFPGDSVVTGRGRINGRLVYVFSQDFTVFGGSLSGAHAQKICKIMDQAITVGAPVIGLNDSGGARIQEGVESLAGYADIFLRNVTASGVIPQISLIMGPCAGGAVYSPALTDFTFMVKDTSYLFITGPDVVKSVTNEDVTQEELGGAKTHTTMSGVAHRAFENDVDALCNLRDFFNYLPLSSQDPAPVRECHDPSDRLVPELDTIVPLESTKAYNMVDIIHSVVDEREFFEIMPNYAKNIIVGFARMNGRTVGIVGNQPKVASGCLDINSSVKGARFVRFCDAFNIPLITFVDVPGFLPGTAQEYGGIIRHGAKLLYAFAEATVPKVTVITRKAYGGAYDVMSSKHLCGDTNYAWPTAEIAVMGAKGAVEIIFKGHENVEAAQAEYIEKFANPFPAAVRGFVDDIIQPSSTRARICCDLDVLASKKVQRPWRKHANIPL
# The list shows a part of the results.
# Compound: Cc1cc(ccc1-c1ccccc1)C(=O)N1CCCN(CC1)C(=O)CCl [compound 10]
# Test: probe-labelled cysteine peptide fold change vs DMSO (competition) (log2 fold change); higher = less target engagement (more negative = stronger competition)
# Conditions: THP-1, incubation time: 4 h
# 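Also: competitive profiling in live THP-1 cells: cysteine peptides tagged with an iodoacetamide desthiobiotin (IA-DTB) probe, intensity after compound treatment relative to DMSO-treated cells.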
Target,probe-labelled cysteine peptide fold change (10 µM),probe-labelled cysteine peptide fold change (50 µM)
PCYOX1_Q9UHG3_462_LYYLNGIECAASAMEMSAIAAHNAALLAYHR (UniProt Q9UHG3),0.129,0.308
PCK2_Q16822_92_YNNCWLAR (UniProt Q16822),-0.205,-0.141
PDHB_P11177_249_QGTHITVVSHSRPVGHCLEAAAVLSK (UniProt P11177),0.0439,-0.246
PARP4_Q9UKK3_45_FSFSLNPQCTHIILDNADVLSQYQLNSIQK (UniProt Q9UKK3),0.267,-0.23
PDLIM1_O00151_45_AALANLCIGDVITAIDGENTSNMTHLEAQNR (UniProt O00151),0.0121,-0.108
PDP1_Q9P0J1_275_VAFSGATACVAHVDGVDLHVANTGDSR (UniProt Q9P0J1),0.0491,0.315
PDHA1_P08559_222_LPCIFICENNR (UniProt P08559),0.133,-0.277
PCMT1_P22061_102_MVGCTGK (UniProt P22061),0.0209,-0.199
PDF_Q9HBH1_68_LVLGPPEPPFSHVCQVGDPVLR (UniProt Q9HBH1),-0.0864,0.113
PCYT1A_P49585_139_GFTVMNENERYDAVQHCR (UniProt P49585),-0.254,-0.458
PDHA1_P08559_41_KCDLHR (UniProt P08559),-0.0812,0.0515
PDIA6_Q15084_291_RTCEEHQLCVVAVLPHILDTGAAGR (UniProt Q15084),0.0625,-0.132
PCBP2_Q15366_158_AITIAGIPQSIIECVK (UniProt Q15366),0.149,-0.0185
PCCA_P05165_398_INGWAVECR (UniProt P05165),0.181,0.357
PDLIM7_Q9NR12_341_YAPSCAK (UniProt Q9NR12),-0.069,-0.47
PCID2_Q5JVF3_68_CTYAVGNHDFIEAYK (UniProt Q5JVF3),0.477,0.274
PBRM1_Q86U86_1224+1228_EVFLSNLEETCPMTCILGK (UniProt Q86U86),-0.202,-0.224
PDP1_Q9P0J1_132_SAATCLQTR (UniProt Q9P0J1),-0.0304,-0.111
PDCD11_Q14690_535_LPVITCYADAKPGLQTHGFIIR (UniProt Q14690),-0.0372,0.0233
PDCD6IP_Q8WUM4_40_FIQQTYPSGGEEQAQYCR (UniProt Q8WUM4),0.232,0.186
PDS5A_Q29RF7_1084_LYTVCDVALCVINSK (UniProt Q29RF7),0.00818,0.0739

# As entered above:
# Under probe-labelled cysteine peptide fold change (50 µM), PCYT1A_P49585_139_GFTVMNENERYDAVQHCR (UniProt P49585) has the entry -0.458
# Under probe-labelled cysteine peptide fold change (10 µM), PCID2_Q5JVF3_68_CTYAVGNHDFIEAYK (UniProt Q5JVF3) has the entry 0.477

# (listing goes on)

Target,probe-labelled cysteine peptide fold change (10 µM),probe-labelled cysteine peptide fold change (50 µM)
PCYT1A_P49585_113_NLFPNTYLIVGVCSDELTHNFK (UniProt P49585),-0.00819,0.012
PCK2_Q16822_325_VECVGDDIAWMR (UniProt Q16822),-0.00811,-0.0679
PCYOX1_Q9UHG3_258_LVCSGLLQASK (UniProt Q9UHG3),-0.036,0.294
PDLIM4_P50479_258_CGHGIVGTIVK (UniProt P50479),-0.0847,-0.546
PDXDC1_Q6P996_425_HSCDALNR (UniProt Q6P996),-0.0568,-0.367
PATL1_Q86TB9_589_GKLPGQERPSDDHFVQIMCIR (UniProt Q86TB9),-0.0158,0.0528
PDLIM7_Q9NR12_364_MTWHVHCFTCAACK (UniProt Q9NR12),-0.0792,-0.0447
PDIA3_P30101_244_KFIQENIFGICPHMTEDNK (UniProt P30101),-0.0467,-0.176
PDZD8_Q8NEN9_667_DVTSETSCPTK (UniProt Q8NEN9),-0.365,-0.476
PDLIM1_O00151_283+289_HRHPECYVCTDCGTNLK (UniProt O00151),0.0267,0.00299
PDIA4_P13667_94_DTVLLEFYAPWCGHCK (UniProt P13667),-0.0929,-1.03
PCM1_Q15154_876_SDGSENLCTPQQSR (UniProt Q15154),-0.581,-0.711
PDS5A_Q29RF7_589_QADICVR (UniProt Q29RF7),0.077,-0.379
PARP9_Q8IXQ6_82_QLCEVLQNK (UniProt Q8IXQ6),-0.3,-0.162
PDCD2L_Q9BRP1_191_LQDAVLGAAHPVPPGLPLFLPYYICVADEDDYRDFVNLDHAHSLLR (UniProt Q9BRP1),0.449,0.166
PDCD7_Q8N8D1_339_GVCPPASADETFTHHLQR (UniProt Q8N8D1),0.0422,0.472
PDIA4_P13667_91_DTVLLEFYAPWCGHCK (UniProt P13667),-0.275,-0.932
PARS2_Q7L3T8_68_SDDLTCK (UniProt Q7L3T8),-0.0866,-0.0199
PCCB_P05166_291_DFFNYLPLSSQDPAPVRECHDPSDR (UniProt P05166),-0.474,-0.454
PDCD2L_Q9BRP1_49_LGGIPDALPTVAAPRPVCQR (UniProt Q9BRP1),-0.457,-0.894
PCNT_O95613_321_CGQEAAELK (UniProt O95613),0.138,-0.00438
